{"source": "patent US11021753B2", "about": "“Mutant genes related to drug resistance and relapse of acute lymphoblastic leukaemia and a use thereof” (SHANGHAI CHILDREN'S MEDICAL CENTER, SHANGHAI JIAO TONG …, priority 2015, dated 2021)", "key": {"Reh-PRPS1-S103T cells": {"test_system": "Reh-PRPS1-S103T cells", "assay": "Lometrexol reversal of 6-MP drug resistance (CellTiter-Glo)", "type": "cell-based, human", "conditions": "Reh-PRPS1-S103T pretreated with 5 ng/ml Lometrexol vs DMSO control; 72 hours"}, "Reh-PRPS1-A190T cells": {"test_system": "Reh-PRPS1-A190T cells", "assay": "Lometrexol reversal of 6-MP drug resistance (CellTiter-Glo)", "type": "cell-based, human", "conditions": "Reh-PRPS1-A190T pretreated with 5 ng/ml Lometrexol vs DMSO control; 72 hours"}}, "note": "At least one read-out could not be matched to a standard name with certainty.", "data": [{"substance": "Lometrexol", "values": [{"measurement": "IC50 values of the drug 6-MP", "setting": "Reh-PRPS1-S103T cells", "result": "significantly decreased"}, {"measurement": "IC50 values of the drug 6-MP", "setting": "Reh-PRPS1-A190T cells", "result": "significantly decreased"}]}]}
